{"source": "patent US20060217340A1", "about": "“Methods and products for treating hypertension by modulation of TRPC3 channel activity” (University of Vermont and State Agricultural College, priority 2005, published 2006)", "key": {"[1]": {"system": "pressurized rat cerebral arteries", "assay": "Arterial wall Ca2+ concentration measurement (FURA-2) in isolated arteries", "type": "cell-based", "details": "1 μM nimodipine", "procedure": "Diameter and membrane potential recordings. […] In experiments using Ca^2+-free PSS, CaCl2 was omitted and 3 mM EGTA and 30 μM diltiazem added. In experiments with diacylglycerol induction, 300 μM of the diacylglycerol analogue OAG (1-oleyol-2-acetyl-sn-glycerol) was added. […] To verify endothelial cell removal the arteries were pressurized to 60 mmHg and allowed to develop myogenic tone prior to exposing the vessels to 1 μM UTP. […] Arterial diameter or membrane potential (Vm) of sense and anti-sense treated arteries was measured in the absence (control) or presence of UTP (concentration range: 0.1 to 10 μM). Membrane potential was measured by inserting a sharp glass electrode (≈100 MΩ resistance) containing 0.5M KCl into the vessel wall. […] Measurements were made using an electrometer (World Precision Instruments) and the data were recorded via computer using Axotape and Dataq software. Arterial diameter was measured using a video dimension analyzer (IonOptix Corporation; Milton, Mass.).\nCa^2+ concentration measurement in isolated arteries. Mounted arteries were equilibrated in 1.6 m M PSS for 40 minutes at 37° C. […] FURA-2 fluorescence was measured using a photomultiplier system (IonOptix Corporation; Milton, Mass., USA) in which background-corrected ratios of the 510-nm emission from arteries alternatively excited at 340 and 380 nm were obtained at a sampling rate of 5 Hz."}, "[2]": {"system": "pressurized rat cerebral arteries", "assay": "Arterial diameter recordings (constriction) in pressurized cerebral arteries", "type": "cell-based", "details": "for effect on UTP-induced constriction: 1 μM nisoldipine", "description": "Oligodeoxynucleotide Sequences and Reverse Permeabilization. TRPC6 sense and antisense oligodeoxynucleotides (ODN's) were designed as previously described (Welsh et al 2002 Circ Res 90, 248-250) and were as follows: sense, 5′-[…]-3′ (SEQ ID: 3) and 5′-GCACACGCAGCCTCTTCAC-3′ (SEQ ID: 4) antisense, 5′-[…]-3′ (SEQ ID: 5) and 5′-[…]-3′ (SEQ ID: 6). TRPC3 sense and antisense ODN's were designed based on the rat TRPC3 gene (Ohki et al 2000 J Biol Chem 275: 39055-39060) and are as follows: sense, 5′-[…]-3′ (SEQ ID: 7) and 5′-[…]-3′ (SEQ ID: 8); anti-sense, 5′-[…]-3′ (SEQ ID: 9) and 5′-[…]-3′ (SEQ ID: 10). The last five bases on the 5′ and 3′ end were phosphorothioated in order to limit ODN degradation. For some experiments fluoroscein-isothiocyanate was conjugated to the 5′ end to allow for histological assessment of cellular uptake of the ODNs. All ODNs were synthesized and HPLC purified commercially by Qiagen (Alameda, Calif., USA). Sense and antisense ODN's (2 μM) were introduced into the arterial SMs using a reversible permeabilization procedure (Lesh et al 1995 Circ Res 77,220-230)). The arterial segments were then organ cultured for 3 days in D-MEM/F-12 culture media with L-glutamine (2 mM), penicillin (50 units/ml) and streptomycin (50 μg/ml) prior to use.\nDiameter and membrane potential recordings. Endothelial cell denuded artery segments were mounted on glass pipettes in an arteriograph chamber (Living Systems, Burlington, Vt., USA), pressurized to 20 mmHg (with no flow), and superfused with warm (37° C.), gassed (95% 02/5% CO2) physiological saline solution (PSS) containing (in mM): 119 NaCl, 4.7 KCl, 24 NaHCO3, 0.2 KH2PO4, […], 1.2 MgSO4, 1.6 CaCl2, and 10.6 glucose, pH 7.4. In experiments using Ca^2+-free PSS, CaCl2 was omitted and 3 mM EGTA and 30 μM diltiazem added. In experiments with diacylglycerol induction, 300 μM of the diacylglycerol analogue OAG (1-oleyol-2-acetyl-sn-glycerol) was added. The endothelium was removed as previously described (Sun et al 1993 Endothelium 1, 115-122). To verify endothelial cell removal the arteries were pressurized to 60 mmHg and allowed to develop myogenic tone prior to exposing the vessels to 1 μM UTP. Absence of a dilation or biphasic constrictor response to 1 μM UTP indicated successful endothelial cell removal (Marelli 2001 Am J Physiol Heart Cir Physiol 281, H1759-H1766; Miyagi et al 1996 Br J Pharmacol 118, 847-856). […] Membrane potential was measured by inserting a sharp glass electrode (≈100 MΩ resistance) containing 0.5M KCl into the vessel wall. The criteria for successful vascular smooth muscle cell impalement were: (1) a sharp negative Vm deflection on entry; (2) a stable potential for at least 1 minute after entry; and (3) a sharp positive Vm deflection upon removal. Measurements were made using an electrometer (World Precision Instruments) and the data were recorded via computer using Axotape and Dataq software. Arterial diameter was measured using a video dimension analyzer (IonOptix Corporation; Milton, Mass.).\nStatistical analysis. Data are expressed as means±SEM, and n indicates the number of animals. Changes in arterial diameter were measured as a percent constriction calculated as follows: [formula]"}}, "note": "For at least one compound, name, drawing or mass did not settle the structure.", "data": [{"compound": "COCCOC(=O)C1=C(C)NC(C)=C(C(=O)OC(C)C)C1c1cccc([N+](=O)[O-])c1", "note": "(stereo not drawn) [nimodipine]", "values": [{"measurement": "effect on 60 mM KCL-induced increase in arterial wall Ca2+", "setting": "[1]", "result": "completely prevented"}, {"measurement": "effect on 60 mM KCL-induced decrease in arterial diameter", "setting": "[2]; 1 μM nimodipine", "result": "completely prevented"}]}, {"compound": "COC(=O)C1=C(C)NC(C)=C(C(=O)OCC(C)C)C1c1ccccc1[N+](=O)[O-]", "note": "(stereo not drawn) [nisoldipine, Nisoldipine]", "values": [{"measurement": "effect on UTP-induced constriction", "setting": "[2]; TRPC3 antisense-treated arteries", "result": "not in antisense-treated arteries"}, {"measurement": "effect on UTP-induced constriction", "setting": "[2]; TRPC3 antisense-treated arteries, listed as nisoldopine", "result": "not in TRPC3 antisense-treated arteries"}, {"measurement": "effect on UTP-induced constriction", "setting": "[2]; TRPC3 sense-treated arteries", "result": "partially reversed"}, {"measurement": "effect on UTP-induced constriction", "setting": "[2]; TRPC3 sense-treated arteries, listed as nisoldopine", "result": "partially reverses"}]}]}
